The supplement of paper PMC10849652
The other results are listed elsewhere or left out.

Amino acid sequences for entries named in this document (tags omitted). A change or cut given only in a name is not applied to a line headed by its entry.
UniProt Q9H257: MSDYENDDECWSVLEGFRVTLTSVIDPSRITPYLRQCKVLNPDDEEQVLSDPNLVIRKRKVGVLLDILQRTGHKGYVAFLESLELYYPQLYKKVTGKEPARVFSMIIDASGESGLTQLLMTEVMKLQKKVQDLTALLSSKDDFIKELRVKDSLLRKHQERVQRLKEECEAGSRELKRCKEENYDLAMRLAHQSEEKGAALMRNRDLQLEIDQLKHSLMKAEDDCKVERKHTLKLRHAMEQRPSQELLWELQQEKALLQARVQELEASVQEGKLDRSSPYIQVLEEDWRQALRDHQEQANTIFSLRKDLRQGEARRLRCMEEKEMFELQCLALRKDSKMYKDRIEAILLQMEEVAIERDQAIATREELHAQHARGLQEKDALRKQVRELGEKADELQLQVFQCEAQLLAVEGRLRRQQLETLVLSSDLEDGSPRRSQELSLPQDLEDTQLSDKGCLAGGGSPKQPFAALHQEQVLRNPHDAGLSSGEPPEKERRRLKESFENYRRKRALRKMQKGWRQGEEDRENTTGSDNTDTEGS
UniProt Q96L46: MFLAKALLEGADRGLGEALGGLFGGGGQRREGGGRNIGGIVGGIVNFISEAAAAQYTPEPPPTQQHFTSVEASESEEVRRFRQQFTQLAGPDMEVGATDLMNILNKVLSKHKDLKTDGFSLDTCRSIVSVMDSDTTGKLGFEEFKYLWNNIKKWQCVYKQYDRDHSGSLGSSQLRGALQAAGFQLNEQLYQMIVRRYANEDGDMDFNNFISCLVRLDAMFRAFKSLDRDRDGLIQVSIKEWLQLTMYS
UniProt Q01518, whole entry, looked up: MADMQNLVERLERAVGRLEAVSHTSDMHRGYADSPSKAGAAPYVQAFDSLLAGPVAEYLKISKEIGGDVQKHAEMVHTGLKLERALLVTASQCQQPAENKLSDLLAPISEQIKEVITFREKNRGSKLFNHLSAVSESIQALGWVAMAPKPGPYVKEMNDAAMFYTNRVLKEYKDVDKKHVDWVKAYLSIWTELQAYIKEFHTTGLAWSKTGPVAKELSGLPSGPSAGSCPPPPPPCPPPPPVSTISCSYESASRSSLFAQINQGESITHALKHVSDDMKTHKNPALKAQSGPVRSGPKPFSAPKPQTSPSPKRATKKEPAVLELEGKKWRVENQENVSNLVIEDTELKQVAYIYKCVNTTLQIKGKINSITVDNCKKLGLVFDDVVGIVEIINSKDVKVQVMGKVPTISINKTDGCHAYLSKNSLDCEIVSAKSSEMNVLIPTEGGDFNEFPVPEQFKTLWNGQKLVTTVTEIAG
UniProt Q96NL8: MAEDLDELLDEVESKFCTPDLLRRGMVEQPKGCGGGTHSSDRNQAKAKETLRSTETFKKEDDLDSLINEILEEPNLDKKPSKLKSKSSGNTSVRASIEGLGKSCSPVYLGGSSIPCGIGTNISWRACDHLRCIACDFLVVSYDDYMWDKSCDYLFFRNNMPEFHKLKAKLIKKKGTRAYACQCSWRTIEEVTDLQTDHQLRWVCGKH
UniProt Q9NSK7: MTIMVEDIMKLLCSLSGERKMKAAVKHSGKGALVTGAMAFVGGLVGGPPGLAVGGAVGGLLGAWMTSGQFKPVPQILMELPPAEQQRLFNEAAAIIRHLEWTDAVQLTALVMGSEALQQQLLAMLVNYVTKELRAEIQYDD
UniProt Q5U649: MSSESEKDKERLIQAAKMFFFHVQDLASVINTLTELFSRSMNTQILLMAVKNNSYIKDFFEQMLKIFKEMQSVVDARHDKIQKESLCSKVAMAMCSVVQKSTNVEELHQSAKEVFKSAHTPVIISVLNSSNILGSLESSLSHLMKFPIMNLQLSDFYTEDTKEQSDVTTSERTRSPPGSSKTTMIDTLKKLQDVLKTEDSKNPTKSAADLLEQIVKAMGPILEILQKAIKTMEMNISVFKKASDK
UniProt Q9GZU0: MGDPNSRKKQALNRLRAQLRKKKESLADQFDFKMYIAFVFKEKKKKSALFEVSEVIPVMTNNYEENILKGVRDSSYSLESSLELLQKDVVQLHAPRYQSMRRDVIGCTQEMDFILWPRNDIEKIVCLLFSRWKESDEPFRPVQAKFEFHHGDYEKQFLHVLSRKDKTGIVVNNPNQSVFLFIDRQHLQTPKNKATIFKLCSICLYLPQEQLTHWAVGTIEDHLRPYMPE
UniProt P27482, whole entry, looked up: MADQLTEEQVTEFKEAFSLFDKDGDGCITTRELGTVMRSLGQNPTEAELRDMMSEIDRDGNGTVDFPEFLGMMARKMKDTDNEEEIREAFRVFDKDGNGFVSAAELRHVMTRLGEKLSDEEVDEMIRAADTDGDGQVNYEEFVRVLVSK
UniProt Q96GV9: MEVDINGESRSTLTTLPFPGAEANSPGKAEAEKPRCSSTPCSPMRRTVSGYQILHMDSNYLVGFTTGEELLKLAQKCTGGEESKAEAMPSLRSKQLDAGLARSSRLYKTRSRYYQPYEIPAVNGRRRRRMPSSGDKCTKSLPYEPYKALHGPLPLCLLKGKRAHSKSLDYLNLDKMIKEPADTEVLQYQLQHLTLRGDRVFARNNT
UniProt P02748: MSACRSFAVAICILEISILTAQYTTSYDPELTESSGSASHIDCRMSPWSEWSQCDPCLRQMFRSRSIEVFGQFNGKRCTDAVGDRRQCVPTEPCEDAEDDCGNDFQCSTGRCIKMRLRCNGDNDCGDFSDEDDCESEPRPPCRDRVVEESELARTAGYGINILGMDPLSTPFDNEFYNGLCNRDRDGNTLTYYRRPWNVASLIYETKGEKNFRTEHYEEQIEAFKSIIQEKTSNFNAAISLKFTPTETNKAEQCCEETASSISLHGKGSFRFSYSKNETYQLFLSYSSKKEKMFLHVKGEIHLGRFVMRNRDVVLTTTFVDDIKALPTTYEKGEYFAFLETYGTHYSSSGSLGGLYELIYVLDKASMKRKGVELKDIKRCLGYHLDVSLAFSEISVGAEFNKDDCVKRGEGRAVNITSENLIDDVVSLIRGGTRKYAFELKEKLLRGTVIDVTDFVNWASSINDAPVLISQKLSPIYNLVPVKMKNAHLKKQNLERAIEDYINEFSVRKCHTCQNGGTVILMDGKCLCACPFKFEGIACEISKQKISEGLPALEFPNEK
UniProt Q7Z6I8: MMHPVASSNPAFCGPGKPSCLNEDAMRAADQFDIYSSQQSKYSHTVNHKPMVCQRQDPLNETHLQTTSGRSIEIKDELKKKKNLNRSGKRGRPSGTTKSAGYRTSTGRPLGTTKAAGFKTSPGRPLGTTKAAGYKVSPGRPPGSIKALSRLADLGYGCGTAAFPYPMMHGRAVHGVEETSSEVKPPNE
UniProt Q9BRJ6: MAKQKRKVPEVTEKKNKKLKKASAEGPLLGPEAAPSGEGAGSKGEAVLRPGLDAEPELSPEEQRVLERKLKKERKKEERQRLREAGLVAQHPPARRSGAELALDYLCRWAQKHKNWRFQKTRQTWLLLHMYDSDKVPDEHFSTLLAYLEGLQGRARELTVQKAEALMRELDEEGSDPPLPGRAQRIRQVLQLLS
UniProt Q9BUW7: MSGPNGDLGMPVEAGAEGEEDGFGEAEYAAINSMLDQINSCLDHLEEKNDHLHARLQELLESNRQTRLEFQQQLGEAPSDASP
UniProt Q9BSF8: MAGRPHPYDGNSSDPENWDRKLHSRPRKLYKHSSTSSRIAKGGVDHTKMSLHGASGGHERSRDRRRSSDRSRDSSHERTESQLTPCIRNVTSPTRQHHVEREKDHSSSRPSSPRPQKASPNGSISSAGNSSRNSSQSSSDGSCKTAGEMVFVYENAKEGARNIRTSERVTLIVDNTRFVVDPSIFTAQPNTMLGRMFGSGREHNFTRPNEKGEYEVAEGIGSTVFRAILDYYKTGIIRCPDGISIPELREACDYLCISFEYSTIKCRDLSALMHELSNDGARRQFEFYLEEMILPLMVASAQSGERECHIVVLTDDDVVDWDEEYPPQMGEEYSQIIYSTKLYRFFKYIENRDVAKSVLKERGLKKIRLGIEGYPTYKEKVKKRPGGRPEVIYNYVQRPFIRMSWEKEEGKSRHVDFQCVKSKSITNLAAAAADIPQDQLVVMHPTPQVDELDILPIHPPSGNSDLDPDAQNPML
UniProt P07358, whole entry, looked up: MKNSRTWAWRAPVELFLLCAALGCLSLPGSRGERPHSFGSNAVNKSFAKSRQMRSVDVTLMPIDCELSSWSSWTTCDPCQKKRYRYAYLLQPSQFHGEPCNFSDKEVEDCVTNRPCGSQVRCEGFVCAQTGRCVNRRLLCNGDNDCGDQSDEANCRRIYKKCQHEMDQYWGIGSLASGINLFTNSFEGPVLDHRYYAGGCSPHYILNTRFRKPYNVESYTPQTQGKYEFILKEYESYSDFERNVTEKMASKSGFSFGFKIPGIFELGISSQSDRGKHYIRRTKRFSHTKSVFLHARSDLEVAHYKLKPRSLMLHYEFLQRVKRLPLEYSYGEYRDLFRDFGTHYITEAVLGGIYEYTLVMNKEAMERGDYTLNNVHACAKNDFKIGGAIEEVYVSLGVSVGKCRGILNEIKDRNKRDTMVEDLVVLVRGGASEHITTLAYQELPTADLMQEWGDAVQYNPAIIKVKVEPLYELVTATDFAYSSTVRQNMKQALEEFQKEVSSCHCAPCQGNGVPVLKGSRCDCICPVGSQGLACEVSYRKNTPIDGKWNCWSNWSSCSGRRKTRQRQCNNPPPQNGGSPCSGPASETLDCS
UniProt Q9UQM7, whole entry, looked up: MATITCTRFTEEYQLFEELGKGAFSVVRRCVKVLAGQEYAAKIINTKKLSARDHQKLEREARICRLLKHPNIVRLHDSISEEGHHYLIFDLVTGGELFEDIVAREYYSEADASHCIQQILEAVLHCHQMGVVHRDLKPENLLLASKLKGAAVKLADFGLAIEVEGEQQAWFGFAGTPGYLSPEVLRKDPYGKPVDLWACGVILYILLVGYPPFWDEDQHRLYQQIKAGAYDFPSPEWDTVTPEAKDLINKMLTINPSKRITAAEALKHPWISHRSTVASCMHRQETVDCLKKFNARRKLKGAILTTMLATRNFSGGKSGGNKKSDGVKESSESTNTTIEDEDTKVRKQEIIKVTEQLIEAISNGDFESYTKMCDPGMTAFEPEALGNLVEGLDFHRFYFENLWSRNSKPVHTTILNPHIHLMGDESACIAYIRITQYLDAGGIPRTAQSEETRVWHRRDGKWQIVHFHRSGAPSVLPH
UniProt Q8N5S9: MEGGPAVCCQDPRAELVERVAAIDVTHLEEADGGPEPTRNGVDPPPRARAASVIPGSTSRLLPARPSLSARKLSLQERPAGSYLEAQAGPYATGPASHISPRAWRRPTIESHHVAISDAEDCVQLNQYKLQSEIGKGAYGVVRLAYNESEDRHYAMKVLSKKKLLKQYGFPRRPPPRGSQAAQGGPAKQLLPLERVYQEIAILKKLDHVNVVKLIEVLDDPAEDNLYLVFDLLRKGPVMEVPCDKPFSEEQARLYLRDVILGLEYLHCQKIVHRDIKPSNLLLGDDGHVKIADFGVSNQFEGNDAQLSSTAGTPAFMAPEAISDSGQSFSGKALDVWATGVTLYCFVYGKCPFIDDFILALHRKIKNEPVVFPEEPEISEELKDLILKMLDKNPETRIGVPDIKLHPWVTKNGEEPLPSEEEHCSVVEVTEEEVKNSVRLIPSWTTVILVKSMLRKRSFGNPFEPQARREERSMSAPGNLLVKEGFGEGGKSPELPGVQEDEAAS
UniProt Q9H741: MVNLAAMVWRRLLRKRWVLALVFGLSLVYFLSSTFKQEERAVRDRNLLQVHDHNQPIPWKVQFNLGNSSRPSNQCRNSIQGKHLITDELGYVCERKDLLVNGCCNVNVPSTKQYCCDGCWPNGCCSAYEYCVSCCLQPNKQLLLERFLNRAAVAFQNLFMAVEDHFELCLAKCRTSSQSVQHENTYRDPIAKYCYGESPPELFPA
UniProt Q9HB07: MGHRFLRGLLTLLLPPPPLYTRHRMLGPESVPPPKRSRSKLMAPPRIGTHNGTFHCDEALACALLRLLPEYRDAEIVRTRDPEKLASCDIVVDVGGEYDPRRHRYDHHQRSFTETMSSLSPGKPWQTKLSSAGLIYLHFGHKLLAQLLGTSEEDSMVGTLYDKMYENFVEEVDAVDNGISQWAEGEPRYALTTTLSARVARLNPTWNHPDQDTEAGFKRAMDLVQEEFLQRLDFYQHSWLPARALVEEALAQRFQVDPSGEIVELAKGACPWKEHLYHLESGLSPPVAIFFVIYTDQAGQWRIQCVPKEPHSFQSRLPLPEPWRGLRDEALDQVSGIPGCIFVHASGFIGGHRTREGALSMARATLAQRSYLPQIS
UniProt Q16581: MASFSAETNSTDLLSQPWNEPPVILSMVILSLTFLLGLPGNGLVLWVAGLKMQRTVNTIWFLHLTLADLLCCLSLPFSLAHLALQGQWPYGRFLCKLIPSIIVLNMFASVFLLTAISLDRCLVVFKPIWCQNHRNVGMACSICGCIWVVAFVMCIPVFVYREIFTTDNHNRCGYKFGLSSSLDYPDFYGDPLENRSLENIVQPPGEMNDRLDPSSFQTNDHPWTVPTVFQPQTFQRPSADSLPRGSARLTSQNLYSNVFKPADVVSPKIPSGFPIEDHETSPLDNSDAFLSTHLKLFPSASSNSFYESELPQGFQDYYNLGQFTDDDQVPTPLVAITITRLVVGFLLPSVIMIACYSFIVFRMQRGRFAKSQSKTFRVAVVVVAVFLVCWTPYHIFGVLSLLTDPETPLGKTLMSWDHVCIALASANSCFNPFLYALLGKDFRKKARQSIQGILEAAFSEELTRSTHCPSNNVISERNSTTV

compound: C[C@@H](Oc1cc(-c2cnn(C3CCNCC3)c2)cnc1N)c1c(Cl)ccc(F)c1Cl [crizotinib]; assay: log2 fold change, soluble protein after heating vs DMSO (PISA); higher = thermal stabilisation; K562 cells, 10 uM, 30 min; active = over 0.2 and 3.5 SD of the protein, either way, in both replicates (recomputed)
Procedure, shortened: (§1)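 K562 cells at 2×10^6 cells/mL were treated for 30 min with 10 μM compound, and aliquots were heated for 3 min over 48°C-58°C before pooling. Extraction used PBS with 0.5% NP-40 at 4°C, and soluble protein was the supernatant after 21,000xg for 90 min, measured by TMTpro 16plex LC-MS/MS with channel sums equalised. Thermal stability values, relative to control samples and from duplicates, are log2 fold changes.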

| Target | log2 fold change |
| --- | --- |
| CALR3 (UniProt Q96L12) | inactive: 0.234 |
| CARD9 (UniProt Q9H257) | inactive: -0.023 |
| CABLES2 (UniProt Q9BTV7) | inactive: -0.075 |
| CAPNS2 (UniProt Q96L46) | inactive: 0.105 |
| CAP1 isoform 2 (UniProt Q01518) | inactive: -0.115 |

compound: C[C@@H]1COCCN1C2=NC(=NC(=C2)C3(CC3)S(=O)(=O)C)C4=C5C=CNC5=CC=C4; assay: as above
Procedure, shortened: as §1

| Target | log2 fold change |
| --- | --- |
| C8orf37 (UniProt Q96NL8) | inactive: -0.083 |
| C19orf12 (UniProt Q9NSK7) | inactive: 0.092 |
| C12orf60 (UniProt Q5U649) | inactive: -0.36 |
| C6orf62 (UniProt Q9GZU0) | inactive: -0.004 |
| CALML3 (UniProt P27482) | inactive: -0.335 |
| C5orf30 (UniProt Q96GV9) | inactive: 0.352 |
| C17orf99 (UniProt Q6UX52) | inactive: 0.053 |
| C9 (UniProt P02748) | inactive: 0.376 |
| CA1 (UniProt E5RIF9) | inactive: -0.134 |
| C5orf24 (UniProt Q7Z6I8) | inactive: -0.046 |

compound: C[C@H](C1=CC=C(C=C1)C(=O)NC2=C3C=CNC3=NC=C2)N; assay: as above
Procedure, shortened: as §1

| Target | log2 fold change |
| --- | --- |
| C9 (UniProt P02748) | inactive: 0.129 |
| C7orf50 (UniProt Q9BRJ6) | inactive: 0.352 |
| BSN (UniProt Q9UPA5) | inactive: 0.066 |

compound: C[C@H](Nc1ncnc2nc[nH]c12)c1cc2cccc(Cl)c2c(=O)n1-c1ccccc1 [duvelisib]; assay: as above
Procedure, shortened: as §1

| Target | log2 fold change |
| --- | --- |
| C9orf16 (UniProt Q9BUW7) | inactive: 0.046 |
| BTBD10 isoform 2 (UniProt Q9BSF8) | inactive: -0.077 |
| CALML3 (UniProt P27482) | inactive: 0.035 |
| C9 (UniProt P02748) | inactive: 0.018 |
| C7orf50 (UniProt Q9BRJ6) | inactive: 0.043 |
| C8B (UniProt P07358) | inactive: -0.057 |
| C5orf24 (UniProt Q7Z6I8) | inactive: 0.045 |
| CA2 (UniProt P00918) | inactive: -0.219 |
| CAMK2A isoform 2 (UniProt Q9UQM7) | inactive: 1.76 |

compound: Cc1cc(Nc2cc(CN3CCOCC3)c3nc(C)c(Cc4ccc(Cl)cc4F)n3n2)n[nH]1 [gandotinib]; assay: as above
Procedure, shortened: as §1

| Target | log2 fold change |
| --- | --- |
| C9orf16 (UniProt Q9BUW7) | inactive: 0.119 |
| BTBD10 isoform 2 (UniProt Q9BSF8) | inactive: -0.274 |
| C6orf62 (UniProt Q9GZU0) | inactive: 0.045 |
| C17orf99 (UniProt Q6UX52) | inactive: 0.176 |
| C5orf24 (UniProt Q7Z6I8) | inactive: -0.014 |
| CAMKK1 isoform 2 (UniProt Q8N5S9) | inactive: 0.311 |
| C12orf49 (UniProt Q9H741) | inactive: 0.16 |
| C12orf10 (UniProt Q9HB07) | inactive: 0.134 |

compound: Cc1cc(Nc2cc(N3CCN(C)CC3)nc(Sc3ccc(NC(=O)C4CC4)cc3)n2)n[nH]1 [tozasertib]; assay: as above
Procedure, shortened: as §1

| Target | log2 fold change |
| --- | --- |
| C8orf37 (UniProt Q96NL8) | inactive: -0.069 |
| C19orf12 (UniProt Q9NSK7) | inactive: 0.002 |
| C12orf60 (UniProt Q5U649) | inactive: 0.178 |
| CALML3 (UniProt P27482) | inactive: 0.191 |
| C9 (UniProt P02748) | inactive: -0.144 |
| C7orf50 (UniProt Q9BRJ6) | inactive: 0.021 |
| C5orf24 (UniProt Q7Z6I8) | inactive: -0.099 |
| CA2 (UniProt P00918) | inactive: 0.034 |

compound: Cc1cc(SCc2sc(-c3ccc(C(F)(F)F)cc3)nc2C)ccc1OCC(=O)O; assay: as above
Procedure, shortened: as §1

| Target | log2 fold change |
| --- | --- |
| C9orf16 (UniProt Q9BUW7) | inactive: 0.025 |
| BTBD10 isoform 2 (UniProt Q9BSF8) | inactive: 0.169 |
| CALML3 (UniProt P27482) | inactive: 0.049 |
| C9 (UniProt P02748) | inactive: -0.047 |
| C7orf50 (UniProt Q9BRJ6) | inactive: -0.06 |
| CA1 (UniProt E5RIF9) | inactive: -0.613 |
| C8B (UniProt P07358) | inactive: 0.038 |
| C5orf24 (UniProt Q7Z6I8) | inactive: -0.203 |
| CA2 (UniProt P00918) | inactive: -0.083 |
| CAMK2A isoform 2 (UniProt Q9UQM7) | inactive: 1.17 |

compound: Cc1ccc(-n2nc(C(C)(C)C)cc2NC(=O)Nc2ccc(OCCN3CCOCC3)c3ccccc23)cc1 [doramapimod]; assay: as above
Procedure, shortened: as §1

| Target | log2 fold change |
| --- | --- |
| CALR3 (UniProt Q96L12) | inactive: 0.037 |
| CARD9 (UniProt Q9H257) | inactive: 0.135 |
| CABLES2 (UniProt Q9BTV7) | inactive: 0.002 |
| CAPNS2 (UniProt Q96L46) | inactive: 0.092 |
| CAP1 isoform 2 (UniProt Q01518) | inactive: -0.125 |

compound: Cc1ccc(C(=O)N(CCCN)[C@@H](c2nc3cc(Cl)ccc3c(=O)n2Cc2ccccc2)C(C)C)cc1 [ispinesib]; assay: as above
Procedure, shortened: as §1

| Target | log2 fold change |
| --- | --- |
| CARD6 (UniProt Q9BX69) | inactive: 0.084 |
| CARD9 (UniProt Q9H257) | inactive: -0.398 |
| C9 (UniProt P02748) | inactive: 0.026 |
| C7orf50 (UniProt Q9BRJ6) | inactive: -0.034 |
| CAMK1 (UniProt Q14012) | inactive: 0.328 |
| CAPNS2 (UniProt Q96L46) | inactive: 0.112 |
| BTBD1 (UniProt Q9H0C5) | inactive: 0.153 |

compound: Cc1ccc(NC(=O)c2ccc(CN3CC[C@H](N(C)C)C3)c(C(F)(F)F)c2)cc1Nc1nccc(-c2cncnc2)n1 [bafetinib]; assay: as above
Procedure, shortened: as §1

| Target | log2 fold change |
| --- | --- |
| C19orf12 (UniProt Q9NSK7) | inactive: -0.003 |
| C12orf60 (UniProt Q5U649) | inactive: -0.165 |
| CA1 (UniProt E5RIF9) | inactive: -0.042 |
| C3AR1 (UniProt Q16581) | inactive: 0.107 |
| CA2 (UniProt P00918) | inactive: -0.192 |
| CAMK1 (UniProt Q14012) | inactive: 0.166 |
| CAP1 isoform 2 (UniProt Q01518) | inactive: 0.242 |
